# Out of some 400,000 compounds screened, about 3,700 (0.93%) were called active. The inconclusive results got no clear call from the source; some entries with a clear call stand among them for comparison. Calls come from the whole dose curve; as a rule, active = well fitted inhibition curve with a large enough effect; inconclusive = small, poorly fitted or top-dose-only effect, or another doubt; inactive = no such curve, though single readings can be large or run the other way. A potency beside an inconclusive call is a rough fit, not a confirmed value.
# Chains of the proteins cited; added tags and fusions are not shown. Lines headed by an entry give the natural chain unless they say otherwise; changes in a name come on top.
# UniProt P11473: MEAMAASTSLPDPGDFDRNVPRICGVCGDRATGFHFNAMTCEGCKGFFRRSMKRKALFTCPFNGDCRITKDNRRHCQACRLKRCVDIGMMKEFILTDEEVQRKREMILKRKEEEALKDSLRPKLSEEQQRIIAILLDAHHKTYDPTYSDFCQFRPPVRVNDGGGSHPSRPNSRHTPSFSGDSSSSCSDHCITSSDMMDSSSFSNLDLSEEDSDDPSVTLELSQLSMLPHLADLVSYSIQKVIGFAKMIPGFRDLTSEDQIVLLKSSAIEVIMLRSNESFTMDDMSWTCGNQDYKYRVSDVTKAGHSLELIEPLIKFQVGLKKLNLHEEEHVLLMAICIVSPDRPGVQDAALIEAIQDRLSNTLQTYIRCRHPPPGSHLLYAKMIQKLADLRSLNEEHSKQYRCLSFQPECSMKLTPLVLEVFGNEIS
# Target: Vitamin D3 receptor (Homo sapiens) (UniProt P11473)
# Experiment: Inhibitors of the vitamin D receptor (VDR): qHTS
# Conditions: VDR-SRC2-3 peptide fluorescence polarization, 2 h; max response, negative = inhibition: hits give low values
# Summary of the method: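 Two reagent solutions held at 4 deg C in the dark were dispensed, compounds pinned at 23 nl, and the mixture incubated 2 h at room temperature. Read-out: fluorescence polarization of VDR–SRC2-3 peptide binding.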
# % is set by controls: 0 for no effect and ±100 for the full control effect; potency is the fitted concentration of half-maximal effect.
SMILES,Potency,"max response, negative = inhibition"
CCOC(=O)N1CCN(C2=C(NS(=O)(=O)c3ccc(C)cc3)C(=O)c3ccccc3C2=O)CC1,"inconclusive: 56.2 µM [inhibitor, partial curve]",–
CC(=O)c1cc(Cc2csc(C(C)=O)c2)cs1,–,inactive: 7.72%
CCOc1ccc(N(CC(=O)OC)S(=O)(=O)c2c(C)noc2C)cc1,active: 89.1 µM,–
CCOC(=O)c1ccccc1NC(=O)c1cn(CC)c2nc(C)ccc2c1=O,"inconclusive: 3.16 µM [inhibitor, partial curve, poor fit]",–
CC1=C(C(=O)Nc2ccccc2)C2(CCCCC2)C(C#N)=C(SCC(N)=O)N1,"inconclusive: 31.6 µM [inhibitor, partial curve, poor fit]",–
CN(C)Cc1nc2ccccc2c(=O)n1Cc1nc(-c2cc3ccccc3o2)cs1,"inconclusive: 35.5 µM [inhibitor, partial curve, poor fit]",–
Cc1ccc(-n2ccnc2SCC(=O)N(CC(C)C)C2CCS(=O)(=O)C2)c(C)c1 (configuration not stated),"inconclusive: 20 µM [inhibitor, single point]",–
Cc1cccc(NC(=O)CSc2ccc(-c3ccccn3)nn2)c1C,–,inactive: 2.08%
COc1cccc(CNC(=O)C2CCCN(S(=O)(=O)c3ccc4c(ccn4C)c3)C2)c1OC (configuration not stated),–,inactive: 7.28%
COc1ccc(N2CCN(C(=O)C3CCC(Cn4c(=S)[nH]c5ccccc5c4=O)CC3)CC2)cc1 (configuration not stated),"inconclusive: 35.5 µM [inhibitor, partial curve, poor fit]",–
Oc1ccc(Cc2ccc(Cl)cc2)c(O)c1,–,inactive: -2.56%
N#C/C(=C\c1ccc(OCc2ccc(C(=O)O)cc2)cc1)C(=O)NCc1ccccc1,"inconclusive: 89.1 µM [inhibitor, partial curve, poor fit]",–
CC(C)[C@H](NC(=O)C1CCN(S(=O)(=O)c2ccc(F)cc2)CC1)C(=O)NCc1ccco1,–,inactive: -26%
CCOC(=O)c1c(NC(=S)N2CCOCC2)sc2c1CCN(C(=O)OCC)C2,"inconclusive: 79.4 µM [inhibitor, single point]",–
Cc1ccc(C(=O)CCC(=O)Nc2ccccc2C)cc1C,–,inactive: -5.23%
OC[C@@H](O)C(O)[C@H](O)[C@@H](O)CO (some centres not stated),–,inactive: -0.427%
O=C(CCNS(=O)(=O)c1ccc(Cl)cc1)NCc1cccnc1,"inconclusive: 89.1 µM [inhibitor, single point]",–
COc1ccc2c(c1)C(=O)C(=O)N2CC1COc2ccccc2O1 (configuration not stated),"inconclusive: 56.2 µM [inhibitor, partial curve, poor fit]",–
COc1ccccc1C=CC(=O)C=Cc1ccccc1OC,"inconclusive: 35.5 µM [inhibitor, full curve]",–
Cc1ccc2cc(/C=C/C(=O)c3ccco3)c(Cl)nc2c1,"inconclusive: 50.1 µM [inhibitor, partial curve]",–
CCCn1c(SCC(=O)NC2CCCCC2)nnc1-c1ccco1,"inconclusive: 79.4 µM [inhibitor, single point]",–

# Among those listed so far, nine have a carbonyl joined to an NH by a bond outside any ring.
SMILES,Potency,"max response, negative = inhibition"
CCOC(=O)c1ccccc1NC(=O)c1cn(CC)c2nc(C)ccc2c1=O,"inconclusive: 3.16 µM [inhibitor, partial curve, poor fit]",–
CC1=C(C(=O)Nc2ccccc2)C2(CCCCC2)C(C#N)=C(SCC(N)=O)N1,"inconclusive: 31.6 µM [inhibitor, partial curve, poor fit]",–
Cc1cccc(NC(=O)CSc2ccc(-c3ccccn3)nn2)c1C,–,inactive: 2.08%
COc1cccc(CNC(=O)C2CCCN(S(=O)(=O)c3ccc4c(ccn4C)c3)C2)c1OC (configuration not stated),–,inactive: 7.28%
N#C/C(=C\c1ccc(OCc2ccc(C(=O)O)cc2)cc1)C(=O)NCc1ccccc1,"inconclusive: 89.1 µM [inhibitor, partial curve, poor fit]",–
CC(C)[C@H](NC(=O)C1CCN(S(=O)(=O)c2ccc(F)cc2)CC1)C(=O)NCc1ccco1,–,inactive: -26%
Cc1ccc(C(=O)CCC(=O)Nc2ccccc2C)cc1C,–,inactive: -5.23%
O=C(CCNS(=O)(=O)c1ccc(Cl)cc1)NCc1cccnc1,"inconclusive: 89.1 µM [inhibitor, single point]",–
CCCn1c(SCC(=O)NC2CCCCC2)nnc1-c1ccco1,"inconclusive: 79.4 µM [inhibitor, single point]",–

# More entries

SMILES,Potency,"max response, negative = inhibition"
O=C(CCCCCn1c(=O)[nH]c2ccsc2c1=O)NCc1ccccc1,"inconclusive: 89.1 µM [inhibitor, single point]",–
O=C(NC(=S)Nc1ccccc1)c1ccc(Br)o1,"inconclusive: 112 µM [inhibitor, partial curve, poor fit]",–
Cc1cc(=O)n2[nH]c(COc3ccccc3)nc2n1,–,inactive: -6.1%
CCOc1ccccc1OCCC(=O)OCC(=O)Nc1c(C)nn(-c2ccccc2)c1C,"inconclusive: 70.8 µM [inhibitor, partial curve, poor fit]",–
Cn1c(-c2sccc2OCc2ccccc2)n[nH]c1=S,–,inactive: 8.2%
CCOC(=O)c1c2c([nH]c(=S)c1C#N)CCCC2,"inconclusive: 63.1 µM [inhibitor, partial curve, poor fit]",–
O=C(CSc1ccccc1)Nc1nccs1,"inconclusive: 7.94 µM [inhibitor, partial curve, poor fit]",–
Cc1ccc(-c2c[nH]c(=S)n2-c2ccccc2F)cc1,"inconclusive: 100 µM [inhibitor, single point]",–
O=C(Nc1cc(Cl)ccc1Cl)N1CCCC1,"inconclusive: 35.5 µM [inhibitor, partial curve, poor fit]",–
CC(OC(=O)c1cc2sccc2n1C)C(=O)NC(C)(C)C (configuration not stated),–,inactive: 3.8%
O=C(Nc1c(Br)cc2c(c1Br)Cc1ccccc1-2)C(F)(F)F,"inconclusive: 89.1 µM [inhibitor, single point]",–
Cc1ccc(/C=N/NC(=O)CC2N=C(Cc3ccccc3)NNC2=O)cc1 (configuration not stated),"inconclusive: 89.1 µM [inhibitor, single point]",–
CCOCCCNC(=O)c1ccccc1NC(=O)C1=C(C)OCCS1,"inconclusive: 89.1 µM [inhibitor, single point]",–
Cc1ccc(/C=C2\SC(=S)N(/N=C/c3cc([N+](=O)[O-])ccc3O)C2=O)o1,"inconclusive: 79.4 µM [inhibitor, single point]",–
O=C(CCC1N=C2c3ccccc3N=C(SCc3ccc(F)cc3)N2C1=O)N1CCN(c2ccccc2)CC1 (configuration not stated),–,inactive: -7.54%
COc1cccc(CNC(=O)c2c[nH]n3c(=O)c(Cl)c(C)nc23)c1,"inconclusive: 89.1 µM [inhibitor, single point]",–
CCOC(=O)c1ccc(N2C(=O)c3n[nH]c(-c4cccs4)c3C2c2cccc(O)c2)cc1 (configuration not stated),–,inactive: 1.23%
O=C(N/N=C/c1ccc(-c2ccccc2[N+](=O)[O-])o1)[C@H]1C[C@@H]1c1ccccc1,"inconclusive: 89.1 µM [inhibitor, single point]",–
C=CCn1c2ccccc2c2nnc(SCCCn3c(=O)[nH]c4ccccc43)nc21,–,inactive: -3.2%
CCCCNC(=S)NNc1c(Cl)cc(Cl)cc1Cl,"inconclusive: 56.2 µM [inhibitor, partial curve, poor fit]",–
O=C(O/N=C(\c1ccccc1)c1ccncc1)c1ccccc1Cl,"inconclusive: 50.1 µM [inhibitor, partial curve, poor fit]",–

# Reference: PubChem BioAssay AID504847 (National Center for Advancing Translational Sciences (NCATS), 2011)
